Results on one compound are retold here after patent US20060135480A1, “Derivatives of succinic and glutaric acids and analogs thereof useful as inhibitors of phex” (Enobia Pharma, priority 2002, published 2006).

By UniProt entry, the sequences of proteins in these tests, tags left out. Residues count along the entry.
UniProt P78562, 53-749 limits assumed: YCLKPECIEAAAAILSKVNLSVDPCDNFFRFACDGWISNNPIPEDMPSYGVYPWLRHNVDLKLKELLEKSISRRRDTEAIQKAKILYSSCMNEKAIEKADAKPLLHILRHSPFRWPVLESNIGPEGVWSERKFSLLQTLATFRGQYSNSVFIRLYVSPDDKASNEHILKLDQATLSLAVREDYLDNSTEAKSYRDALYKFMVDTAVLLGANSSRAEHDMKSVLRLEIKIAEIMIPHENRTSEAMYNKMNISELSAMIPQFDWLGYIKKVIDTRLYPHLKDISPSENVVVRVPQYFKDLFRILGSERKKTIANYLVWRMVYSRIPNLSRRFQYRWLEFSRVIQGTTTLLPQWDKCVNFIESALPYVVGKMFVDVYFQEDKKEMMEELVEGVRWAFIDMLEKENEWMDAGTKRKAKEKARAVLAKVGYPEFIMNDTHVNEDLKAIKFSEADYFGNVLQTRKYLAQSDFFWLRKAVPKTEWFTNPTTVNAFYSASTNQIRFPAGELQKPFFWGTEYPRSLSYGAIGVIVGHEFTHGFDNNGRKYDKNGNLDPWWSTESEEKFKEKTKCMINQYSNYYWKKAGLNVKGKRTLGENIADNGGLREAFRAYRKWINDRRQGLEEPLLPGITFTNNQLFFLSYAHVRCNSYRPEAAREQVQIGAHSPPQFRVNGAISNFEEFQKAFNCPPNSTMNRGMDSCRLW

The assay addresses sPHEX (Homo sapiens, UniProt P78562). The experiment in a line: sPHEX inhibitor IC50 determination using a fluorogenic substrate (Abz-GFSDYK-Dnp, S3). The conditions noted are these: fluorogenic substrate 20 μM, 100 ng sPHEX, pH 6.5. On the procedure:
The soluble form of the metallopeptidase PHEX (sPHEX) was purified to homogeneity according to the methods of Boileau and Crine (WO 00/50580). sPHEX quantity was measured with the Bradford assay (BioRad) using BSA as a standard.
sPHEX activity was determined using a fluorogenic substrate in which an increase of fluorescence was proportional to substrate conversion to products.
S3 was synthesized at Dr. Gilles Lajoie's laboratories (University of Western Ontario, Canada) by standard solid phase peptide synthesis. The fluorescent reaction product was excited at 320 nm to fluoresce at 420 nm. Fluorescence was recorded at 420 nm every five minutes over a one-hour period on a fluorescence plate reader (Perkin-Elmer, HTS-7000) to calculate the initial rate of the reaction. […] Enzymatic activity was determined by subtracting either the initial rate of substrate in buffer (solvolysis), or the typical reaction rate in which 5 mM EDTA was added prior to initiating the reaction.
sPHEX inhibitor IC50 determinations were done using the tested inhibitor at various concentrations coming from a serial dilution (usually ranging from 10^−3 M to 10^−12 M) in the reaction described above. IC50 values were calculated using the iterative four parameters non-linear regression formula from the GraphPad™ software (Prism).

The match of structure and compound is tentative.

As for `CN(C)c1ccc(-c2ccc(CCNC(=O)C(CC(=O)O)CC(=O)NO)cc2)cc1` (stereo not shown), the IC50 stood at 5 µM.
